# Test system: LoVo
# Test: Antiproliferative activity against human LoVo cells assessed as reduction in cell viability incubated for 120 hrs by MTT assay
# Format: functional, cell-based
compound,measurement,value
COc1cc2c(c(OC)c1OC)-c1ccc(OC)c(=O)cc1[C@@H](NC(C)=O)CC2 [COLCHICINE],IC50,108 nM

# From ChEMBL document CHEMBL4359931, “Synthesis, biological evaluation and molecular docking studies of new amides of 4-bromothiocolchicine as anticancer agents” (Bioorg Med Chem, 2019)
